PubChem BioAssay AID1259424 | University of Nebraska Medical Center, 2018
Here is one part, drawn at random, of about 14,000 reagents. 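Higher correlation or smaller distance means closer resemblance to KSR1 loss; control wells, including KSR1 knockdowns, recur on many plates.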 A reagent listed more than once was tested more than once; the source does not tell the runs apart. Further read-outs or replicates are left out here. Not given: the time to read-out.

Screen: 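Rank knockdowns across the genome by resemblance to the KSR1 depletion profile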 (primary screen)
Cells: human HCT116 colon cancer cells
Reagent: siRNA pool against human genes, 50 nM
Measurement: 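Six signature mRNAs by branched-DNA multiplex assay, scaled to two housekeeping genes and non-targeting median, log2; matched to mean KSR1 knockdown profile by Pearson correlation and euclidean distance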
Reading the numbers: mean correlation with KSR1 profile: higher = expression change more like KSR1 knockdown

target | mean correlation with KSR1 profile
SEL1L (SEL1L adaptor subunit of SYVN1 ubiquitin ligase) | -0.136
NFASC (neurofascin) | -0.497
PLIN3 (perilipin 3) | -0.273
GDPD2 (glycerophosphodiester phosphodiesterase domain containing 2) | -0.184
HLA-DMB (major histocompatibility complex, class II, DM beta) | -0.626
CHPF (chondroitin polymerizing factor) | 0.428
RCE1 (Ras converting CAAX endopeptidase 1) | 0.116
CEP44 (centrosomal protein 44) | 0.592
PC (pyruvate carboxylase) | 0.48
PRY (PTPN13 like Y-linked) | -0.308
GLRA1 (glycine receptor alpha 1) | -0.395
HMGXB3 (HMG-box containing 3) | 0.25
SGSM2 (small G protein signaling modulator 2) | -0.126
OMD (osteomodulin) | -0.274
C10orf88 (chromosome 10 open reading frame 88) | 0.641
GPR61 (G protein-coupled receptor 61) | 0.803
ZNF581 (zinc finger protein 581) | -0.46
PIAS3 (protein inhibitor of activated STAT 3) | -0.469
MAPK11 (mitogen-activated protein kinase 11) | 0.74
DDX4 (DEAD-box helicase 4) | -0.61
AGPAT4 (1-acylglycerol-3-phosphate O-acyltransferase 4) | 0.176
RPUSD4 (RNA pseudouridine synthase D4) | 0.208
SLC30A10 | 0.116
CNPY3 (canopy FGF signaling regulator 3) | -0.241
CHLSN (cholesin) | 0.745
TMEFF2 | -0.538
NDUFB8 (NADH:ubiquinone oxidoreductase subunit B8) | 0.0826
RPN1 (ribophorin I) | 0.387
GSR (glutathione-disulfide reductase) | -0.248
PCDHA1 (protocadherin alpha 1) | -0.361
TXNDC17 (thioredoxin domain containing 17) | 0.418
STAG1 (STAG1 cohesin complex component) | -0.135
YIPF5 (Yip1 domain family member 5) | 0.574
TP53AIP1 (tumor protein p53 regulated apoptosis inducing protein 1) | 0.218
REG1CP (regenerating family member 1 gamma, pseudogene) | 0.519
MYF5 (myogenic factor 5) | -0.331
KMT2E (lysine methyltransferase 2E (inactive)) | 0.319
NRG3 (neuregulin 3) | 0.463
CIAO2B (cytosolic iron-sulfur assembly component 2B) | -0.206
ABCA10 (ATP binding cassette subfamily A member 10) | 0.138
TMEM107 (transmembrane protein 107) | 0.337
NDRG3 (NDRG family member 3) | -0.19
GRK2 (G protein-coupled receptor kinase 2) | 0.146
GRK2 (G protein-coupled receptor kinase 2) | 0.0235
PALD1 (phosphatase domain containing paladin 1) | -0.0655
HSFY1 (heat shock transcription factor Y-linked 1) | 0.141
SNAPC1 (small nuclear RNA activating complex polypeptide 1) | -0.059
GORASP1 (golgi reassembly stacking protein 1) | -0.0489
FBXW8 (F-box and WD repeat domain containing 8) | -0.753
PIP4K2A (phosphatidylinositol-5-phosphate 4-kinase type 2 alpha) | 0.709

Targets listed so far whose target name starts with C or c (6):
target | mean correlation with KSR1 profile
CHPF (chondroitin polymerizing factor) | 0.428
CEP44 (centrosomal protein 44) | 0.592
C10orf88 (chromosome 10 open reading frame 88) | 0.641
CNPY3 (canopy FGF signaling regulator 3) | -0.241
CHLSN (cholesin) | 0.745
CIAO2B (cytosolic iron-sulfur assembly component 2B) | -0.206
